# Results taken from paper PMC8836073, “Activatable Peptides for Rapid and Simple Visualization of Protease Activity Secreted in Living Cells” (International Journal of Molecular Sciences, 2022).
# Tested on: HT-1080 cells (MMP2-positive)
# Test: Live cell confocal imaging of peptide uptake in HT-1080 cells
# Type: cell-based, Human
# Experimental: For live cell imaging, HT-1080 or HT-29 cells were cultured in Lab-Tek II chambered coverglass (Thermo Fisher Scientific) containers in RPMI-1640 media containing 10% FBS and 1× P/S at 37 °C. When the cells were 80% confluent, the culture medium was rinsed and changed to a fresh serum-free medium, followed by the addition of peptide probes at a final concentration of 10 μM. For organelle images, nuclei and lysosomes (or late endosomes) were stained with NucBlue (1 drop) and Lysotracker Red (50 nM) in serum-free media, respectively, and incubated in the dark for 10 min. After washing of the cells and removal of the chamber, cells adhering to the coverglass were subjected to bright-field or fluorescent images using a confocal microscope (Nikon C2si+, Japan). The excitation/emission wavelengths of NucBlue, FITC, and Lysotracker Red were 352/454 nm, 488/525 nm, and 577/590 nm, respectively. Typically, images were collected using a pixel dwell time of 10.3 μs on a 512 × 512 pixel image with 1 mW light power at the objective through a pinhole (60 μm) to reach the PMT. The frame rate was rather slow; the frame rate was about 0.255 FPS (frame per second) for a 512 × 512 frame (i.e., 1 frame per 3.9 s). To gain time-lapse images for FITC in living cells, one video file was constructed with images taken every 20 s for 30 min. Imaging analysis was performed using the NIS-Elements microscope imaging software (Ver 2.0).
# [1] = HT-1080, 10 μM Pep1, serum-free media, 37 °C, imaging for 24 h (Figure S1)
substance,measurement,setting,value
EEEEGGIPVSLRSGGGRRRRK-FITC [Pep1],"fluorescence intensity in continuous live cell imaging, after 12 h",[1],decreased
same,"fluorescence intensity in continuous live cell imaging, after 24 h",[1],completely lost
same,intracellular localization,"living HT-1080, 30 min after Pep1 treatment, NucBlue and Lysotracker Red co-staining",around the cell membrane or in the cytosol
